Assay results published in the supplement of paper PMC11348887.
Structures can show the parent of a compound that is named as a salt. The list shows a part of the results. Most values lie at the level of the controls, where differences are scatter.

Test system: hPSC-derived cortical neurons (WA09)
Experiment: nucleus roundness z-score vs screen plate; higher = rounder nuclei (more mature)
Settings: 5 µM; treatment: days 7-14 after plating, readout day 21

Row | SMILES | nucleus roundness z-score
1 | CNCCc1ccccn1 [Betahistine 2HCl] | 0.634
2 | Cc1cccc(-c2[nH]c(CNc3ccccc3F)nc2-c2ccc3ncnn3c2)n1 | -4.39
3 | COC(=O)N[C@H](C(=O)N1CCC[C@H]1c1ncc(-c2ccc(-c3ccc(-c4cnc([C@@H]5CCCN5C(=O)[C@@H](NC(=O)OC)C(C)C)[nH]4)cc3)cc2)[nH]1)C(C)C | -0.123
4 | CCCNCC(O)COc1ccccc1C(=O)CCc1ccccc1 (stereo not drawn) [Propafenone HCl] | -0.308
5 | O=C1NC(=O)C(c2cnc3ccccn23)=C1c1cn2c3c(cc(F)cc13)CN(C(=O)N1CCCCC1)CC2 | -2.37
6 | Oc1cccc(O)c1 [Resorcinol] | 0.527
7 | Cc1c(C(=O)N2CCOc3ccc(-c4ccc(N)nc4)cc3C2)ccc(S(C)(=O)=O)c1F | -2.73
8 | Nc1nc(=O)c2c([nH]1)NCC(CNc1ccc(C(=O)N[C@@H](CCC(=O)O)C(=O)O)cc1)N2C=O (stereo partly drawn) [Leucovorin Calcium Pentahydrate] | 0.685
9 | CN1CCC[C@H]1c1cccnc1 [Nicotine Ditartrate] | 1.28
10 | C[C@H](NC(=O)CCc1nc2ccccc2c(=O)[nH]1)c1ccccc1 | 0.0206
11 | COC(=O)Nc1nc2cc(C(=O)c3cccs3)ccc2[nH]1 [Nocodazole] | 0.447
12 | COc1ccc(-c2nc3cc(C4=NNC(=O)CC4C)ccc3[nH]2)cc1 (stereo not drawn) [Pimobendan] | 0.358
13 | Cc1c(O)cccc1C(=O)N[C@@H](CSc1ccccc1)[C@H](O)CN1C[C@H]2CCCC[C@H]2C[C@H]1C(=O)NC(C)(C)C [Nelfinavir Mesylate] | -1.32

Reprinted at random: 2 records from the list, in no set order.
Row | SMILES | nucleus roundness z-score
12 | COc1ccc(-c2nc3cc(C4=NNC(=O)CC4C)ccc3[nH]2)cc1 (stereo not drawn) [Pimobendan] | 0.358
6 | Oc1cccc(O)c1 [Resorcinol] | 0.527
